PubChem BioAssay AID1224830 – NIAID – 2016
This is a random part of about 18,000 deposited reagents. About 2,900 of them (16%) were called active. 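Calls are made per well; low scores hint the gene aids the LPS response, high scores that it dampens it.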 Unmarked entries are inactive. Repeated entries: four replicate wells of each siRNA pool. No sequences are given here.

- Assay: 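Genes whose knock-down alters the TNF-alpha reporter response to LPS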 (primary screen)
- Cell system: human THP-1 monocytic leukaemia cells, TNF dual-luciferase reporter clone, PMA-differentiated to macrophage-like cells
- Knock-down reagent: siRNA pool against human genes, 50 nM
- Time to read-out: LPS for 4 h, given about 3 days after siRNA transfection
- Challenge: bacterial LPS (TLR4 ligand), 10 ng/ml
- Read-out: 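TNF firefly reporter luminescence divided by renilla, normalised to the plate median, then turned into a robust z-score for each replicate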
- Reading the numbers: TNF reporter robust z-score: higher = stronger TNF reporter response to LPS
- Call rule: 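Each well counts as active if its z-score is over 2.8 or under -1.5; controls are left without a call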

After knock-down of RETNLB (GeneID 84666), the screen gave TNF reporter robust z-score -1.14.
Depletion of RETNLB (GeneID 84666) resulted in: TNF reporter robust z-score -0.99.
Knock-down of RETNLB (GeneID 84666) came out at: TNF reporter robust z-score -0.21.
For RETNLB (GeneID 84666) the deposit lists TNF reporter robust z-score -0.28.
For MYT1 (GeneID 4661) the deposit lists TNF reporter robust z-score -1.11.
Silencing of MYT1 (GeneID 4661) gave: TNF reporter robust z-score -0.14.
With knock-down of MYT1 (GeneID 4661), the screen gave TNF reporter robust z-score -0.26.
MYT1 (GeneID 4661) showed TNF reporter robust z-score 0.19.
SCGB2A2 (GeneID 4250) scored TNF reporter robust z-score 0.47.
With knock-down of SCGB2A2 (GeneID 4250), the screen gave TNF reporter robust z-score 1.54.
Knock-down of SCGB2A2 (GeneID 4250) came out at: TNF reporter robust z-score -0.58.
For SCGB2A2 (GeneID 4250) the deposit lists TNF reporter robust z-score -0.16.
For GSTA3 (GeneID 2940) the deposit lists TNF reporter robust z-score -0.95.
Against GSTA3 (GeneID 2940) the deposit lists TNF reporter robust z-score -2.08 (active).
GSTA3 (GeneID 2940) showed TNF reporter robust z-score -1.37.
GSTA3 (GeneID 2940) gave TNF reporter robust z-score -0.5.
For TMEM223 (GeneID 79064) the deposit lists TNF reporter robust z-score 0.09.
After knock-down of TMEM223 (GeneID 79064), the screen gave TNF reporter robust z-score 1.47.
Knock-down of TMEM223 (GeneID 79064) resulted in: TNF reporter robust z-score 0.82.
TMEM223 (GeneID 79064) scored TNF reporter robust z-score 0.75.
For CAB39L (GeneID 81617), the entry reads TNF reporter robust z-score -0.33.
Silencing of CAB39L (GeneID 81617) came out at: TNF reporter robust z-score -0.55.
After knock-down of CAB39L (GeneID 81617), the screen gave TNF reporter robust z-score -1.19.
Knock-down of CAB39L (GeneID 81617) resulted in: TNF reporter robust z-score -0.28.

Targets above whose gene name begins with M or m (4):
MYT1 (GeneID 4661) | TNF reporter robust z-score = -1.11
MYT1 (GeneID 4661) | TNF reporter robust z-score = -0.14
MYT1 (GeneID 4661) | TNF reporter robust z-score = -0.26
MYT1 (GeneID 4661) | TNF reporter robust z-score = 0.19

The list goes on:
EDNRA (GeneID 1909) showed TNF reporter robust z-score 0.16.
Knock-down of EDNRA (GeneID 1909) resulted in: TNF reporter robust z-score -0.28.
EDNRA (GeneID 1909) scored TNF reporter robust z-score 0.67.
Against EDNRA (GeneID 1909), the values are TNF reporter robust z-score 0.06.
KCTD8 (GeneID 386617) gave TNF reporter robust z-score 0.1.
After knock-down of KCTD8 (GeneID 386617), the record shows TNF reporter robust z-score 0.03.
KCTD8 (GeneID 386617) gave TNF reporter robust z-score 0.15.
For KCTD8 (GeneID 386617), the values are TNF reporter robust z-score 1.91.
CNGB1 (GeneID 1258) gave TNF reporter robust z-score 1.06.
After knock-down of CNGB1 (GeneID 1258), the record shows TNF reporter robust z-score -0.04.
CNGB1 (GeneID 1258) gave TNF reporter robust z-score -1.29.
After knock-down of CNGB1 (GeneID 1258) the results were TNF reporter robust z-score -0.71.
For CFHR4 (GeneID 10877) the deposit lists TNF reporter robust z-score -0.57.
Silencing of CFHR4 (GeneID 10877) resulted in: TNF reporter robust z-score -0.34.
CFHR4 (GeneID 10877) showed TNF reporter robust z-score -0.24.
For CFHR4 (GeneID 10877) the deposit lists TNF reporter robust z-score -0.6.
MAP9 (GeneID 79884) showed TNF reporter robust z-score 0.25.
Against MAP9 (GeneID 79884), the values are TNF reporter robust z-score 0.18.
With knock-down of MAP9 (GeneID 79884), the screen gave TNF reporter robust z-score -0.34.
MAP9 (GeneID 79884) showed TNF reporter robust z-score -0.25.
MED13L (GeneID 23389) scored TNF reporter robust z-score 0.7.
Against MED13L (GeneID 23389) the deposit lists TNF reporter robust z-score 1.37.
With knock-down of MED13L (GeneID 23389) the results were TNF reporter robust z-score -0.03.
For MED13L (GeneID 23389) the deposit lists TNF reporter robust z-score 0.32.
IGHMBP2 (GeneID 3508) showed TNF reporter robust z-score -0.95.
IGHMBP2 (GeneID 3508) scored TNF reporter robust z-score -0.37.
IGHMBP2 (GeneID 3508) scored TNF reporter robust z-score -1.19.
IGHMBP2 (GeneID 3508) gave TNF reporter robust z-score -0.67.
Knock-down of MASP1 (GeneID 5648) came out at: TNF reporter robust z-score -0.29.
Knock-down of MASP1 (GeneID 5648) came out at: TNF reporter robust z-score -0.49.
MASP1 (GeneID 5648) showed TNF reporter robust z-score -1.18.
Silencing of MASP1 (GeneID 5648) came out at: TNF reporter robust z-score -0.03.
Silencing of IL31 (GeneID 386653) came out at: TNF reporter robust z-score 0.67.
IL31 (GeneID 386653) scored TNF reporter robust z-score 1.16.
Depletion of IL31 (GeneID 386653) came out at: TNF reporter robust z-score 1.5.
Silencing of IL31 (GeneID 386653) came out at: TNF reporter robust z-score 1.63.
